{
  "source": "paper PMC9193967",
  "binders": {"B1": {"name": "mitsugumin 53 (MG53) (protein, UniProt Q1XH17 1-477)", "chain": "MSAAPGLLRQELSCPLCLQLFDAPVTAECGHSFCRACLIRVAGEPAADGTVACPCCQAPTRPQALSTNLQLSRLVEGLAQVPQGHCEEHLDPLSIYCEQDRTLVCGVCASLGSHRGHRLLPAAEAQARLKTQLPQQKMQLQEACMRKEKTVAVLEHQLVEVEETVRQFRGAVGEQLGKMRMFLAALESSLDREAERVRGDAGVALRRELSSLNSYLEQLRQMEKVLEEVADKPQTEFLMKFCLVTSRLQKILSESPPPARLDIQLPVISDDFKFQVWKKMFRALMPALEELTFDPSSAHPSLVVSSSGRRVECSDQKAPPAGEDTRQFDKAVAVVAQQLLSQGEHYWEVEVGDKPRWALGVMAADASRRGRLHAVPSQGLWLLGLRDGKILEAHVEAKEPRALRTPERPPARIGLYLSFADGVLAFYDASNPDVLTPIFSFHERLPGPVYPIFDVCWHDKGKNAQPLLLVGPEQEQA"}},
  "target": "T1, receptor-interacting protein kinase 1 (RIPK1) (mouse (endogenous in heart tissue)) (UniProt Q60855)",
  "T1 sequence": "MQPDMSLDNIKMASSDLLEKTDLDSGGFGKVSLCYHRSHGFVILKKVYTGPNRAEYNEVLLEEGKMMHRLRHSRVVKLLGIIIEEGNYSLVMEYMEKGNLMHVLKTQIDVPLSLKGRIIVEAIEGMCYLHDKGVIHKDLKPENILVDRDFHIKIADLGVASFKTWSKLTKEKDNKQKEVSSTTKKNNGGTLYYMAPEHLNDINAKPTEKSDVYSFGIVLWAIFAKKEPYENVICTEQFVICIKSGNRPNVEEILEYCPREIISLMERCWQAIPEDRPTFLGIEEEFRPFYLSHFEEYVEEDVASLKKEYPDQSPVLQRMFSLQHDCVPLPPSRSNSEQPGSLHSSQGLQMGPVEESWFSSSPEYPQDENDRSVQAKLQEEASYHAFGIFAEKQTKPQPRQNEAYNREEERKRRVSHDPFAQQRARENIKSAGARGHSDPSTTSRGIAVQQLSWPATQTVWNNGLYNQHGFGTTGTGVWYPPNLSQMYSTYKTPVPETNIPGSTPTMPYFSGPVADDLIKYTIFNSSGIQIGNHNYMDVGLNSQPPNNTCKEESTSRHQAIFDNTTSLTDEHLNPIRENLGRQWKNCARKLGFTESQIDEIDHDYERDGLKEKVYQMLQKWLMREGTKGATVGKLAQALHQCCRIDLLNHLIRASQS",
  "experiment": "co-IP; anti-RIPK1 antibody (610459, BD Bioscience) on Dynabeads Protein G, mouse heart tissue lysate added overnight in the cold room; blot for MG53; lysis buffer 50 mM Tris-HCl pH 7.5, 150 mM NaCl, 10% glycerol, 1% Triton X-100, 1 mM EDTA; infarct (I/R) and non-infarct areas of wt hearts",
  "note": "No constants are given. Whether binding was seen depends on the method and setting. Binding seen in cells or lysates may run through a third protein. Some binding calls cover weakened binding; strength is not graded here.",
  "data": [
    {"binder": "B1", "values": [
      {"measurement": "binding", "result": "binds"}
    ]}
  ]
}
